# Reference: PubChem BioAssay AID2685 (National Center for Advancing Translational Sciences (NCATS), 2010)
# Some of the results follow. These are further read-outs of the screen, such as a control signal, another cell line or another target. No call is given for them. The list favours compounds with an active or inconclusive main result. Words in brackets tell the shape of the fitted curve; partial curves, single points and poor fits give uncertain potencies.
# Experiment: qHTS Assay for Lipid Storage Modulators in Drosophila S3 Cells;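 as to cell number change: cells counted by Cell Tracker Red CMTPX staining in the red channel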
# Conditions: BODIPY lipid droplet fluorescence, 18-24 h; for cell number change: measured here: cell count max response, cells fed with added oleic acid
# Procedure, shortened: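 Drosophila S3 cells got compounds at several concentrations plus oleic acid (400 uM solution). Laser-scanning cytometry with 488 nm excitation read lipid droplets at 500-530 nm and cells at 575-640 nm. Percent activity was relative to 20 uM Triacsin C.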
# [1] = measured here: lipid fluorescence (Fed channel) AC50, cells fed with added oleic acid
# [2] = measured here: cell number channel AC50, cells fed with added oleic acid
smiles,measurement,setting,value
N#Cc1c(NC(=O)c2cc(C3CC3)on2)sc2c1CCC2,cell number change,,-8.88%
CCNc1ccc(C(=O)OCC(=O)NC(=O)NCC(C)C)cc1[N+](=O)[O-],cell number change,,2.94%
CCOC(=O)c1cc2n(c1N)-c1ccccc1C2=O,AC50,[1],"4.11 µM [rising, single point]"
CC/C(C)=N/Nc1nc2sc3c(c2c(=O)[nH]1)CC(C)(C)OC3,cell number change,,37.4%
same,AC50,[2],"16.4 µM [rising, single point]"
same,AC50,[1],"6.51 µM [falling, partial curve, poor fit]"
COc1ccc(Cl)cc1-n1c(C)cc(C=O)c1C,cell number change,,52.7%
same,AC50,[2],"23.1 µM [rising, single point]"
same,AC50,[1],"6.51 µM [falling, single point]"
O=C(NCC(c1cccnc1)N1CCN(c2ccccc2F)CC1)C1CCCCC1 (stereo unspecified),cell number change,,-4.45%
same,AC50,[1],"6.51 µM [falling, single point]"
CCCc1cc(=O)[nH]c(SCC(=O)N2CCCC2=O)n1,cell number change,,-29.3%
same,AC50,[2],"0.259 µM [falling, full curve, poor fit]"
CCOc1ccccc1NC(C)C(=O)NC(=O)NC1CCCCC1 (stereo unspecified),cell number change,,-1.29%
same,AC50,[1],"16.4 µM [falling, single point]"
CC(=O)Nc1ccc(-c2csc(Nc3ccc(S(N)(=O)=O)cc3)n2)cc1,cell number change,,-22.5%
same,AC50,[1],"23.1 µM [falling, single point]"
CCn1c(SCC(=O)NC2CC2)nnc1-c1cccs1,cell number change,,13.4%
same,AC50,[2],"0.058 µM [rising, partial curve, poor fit]"
O=C(NCCNC(=O)C1CC2CCC1C2)C1CC2CCC1C2 (stereo unspecified),cell number change,,-63.3%
same,AC50,[2],"11.6 µM [falling, partial curve]"
same,AC50,[1],"4.61 µM [falling, partial curve]"
Cc1ccc(C(=O)NCc2ccco2)cc1S(=O)(=O)Nc1cccc(C)c1C,cell number change,,121%
same,AC50,[2],"23.1 µM [rising, partial curve, poor fit]"
O=C(c1ccc2c(c1)C(=O)N(CCCO)C2=O)c1ccc2c(c1)C(=O)N(CCCO)C2=O,cell number change,,-7.44%
same,AC50,[1],"29.1 µM [falling, single point]"
CCCCN(C(=O)c1cccc(-n2cccc2)c1)c1c(N)n(CCC)c(=O)[nH]c1=O,cell number change,,-10.4%
same,AC50,[1],"29.1 µM [rising, single point]"
COCCn1c(=O)[nH]c2cc(C(=O)Nc3cc(OC)c(OC)c(OC)c3)ccc2c1=O,cell number change,,14.5%
COc1ccc(NC(C)=O)cc1NC(=O)CN1CCN(c2ccccn2)CC1,cell number change,,38.2%
same,AC50,[2],"23.1 µM [rising, single point]"
same,AC50,[1],"20.6 µM [rising, single point]"
O=C(Nc1ccc2c(c1)OCCO2)c1cccnc1,cell number change,,34.5%
CN1C(=O)c2ccc(NC(=O)c3cccc4ccccc34)cc2C1=O,cell number change,,4.5%
same,AC50,[1],"29.1 µM [falling, single point]"
C/C(Cl)=C\CNC(C)c1ccccc1 (stereo unspecified),cell number change,,-21.1%
same,AC50,[1],"0.411 µM [falling, full curve, poor fit]"
Cc1ccc(-c2c3c(=O)n(C)c(=O)n(C)c3cn2Cc2ccccc2)cc1,AC50,[2],"0.116 µM [falling, full curve, poor fit]"
same,AC50,[1],"6.51 µM [falling, partial curve]"
O=C(c1ccc(CS(=O)Cc2ccc(Cl)cc2)o1)N1CCN(c2cccc(Cl)c2)CC1 (stereo unspecified),cell number change,,19.1%
same,AC50,[2],"3.26 µM [rising, single point]"
Cn1c2ccccc2c2cc(C(=O)NNC(=O)CCl)sc21,cell number change,,-1.1%
S=c1[nH]nc(Cc2cccc3ccccc23)n1-c1ccccc1,cell number change,,39.4%
same,AC50,[2],"20.6 µM [rising, single point]"
Cc1cc(C(=O)COc2ccccc2Cl)c(C)n1-c1ccc2c(c1)OCO2,cell number change,,8.22%
same,AC50,[2],"2.91 µM [rising, partial curve]"
same,AC50,[1],"2.91 µM [rising, partial curve]"
CC(=O)N1CCN=C1SCc1ccc(F)cc1,cell number change,,0.466%
same,AC50,[1],"6.51 µM [falling, single point]"
CCN1CCN(C(=O)Nc2ccc(Cc3ccc(NC(=O)N4CCN(CC)CC4)cc3)cc2)CC1,cell number change,,0.352%
same,AC50,[1],"14.6 µM [rising, single point]"
Cc1cc(C(=O)CN2CCCC2)c(C)n1-c1ccc(Cl)cc1,cell number change,,24.9%
same,AC50,[1],"0.0058 µM [rising, full curve, poor fit]"
COc1ccc(NC(=O)c2cc(-c3ccccc3)on2)cc1,cell number change,,-2.92%
COc1ccc([C@H]2[C@H](C(C)=O)N3N=Cc4ccccc4C3C23C(=O)OC(C)(C)OC3=O)cc1 (stereo partly specified),AC50,[2],"6.51 µM [rising, partial curve]"
same,AC50,[1],"6.51 µM [rising, partial curve, poor fit]"
COc1ccc(C)cc1NC(=O)CN(C)S(=O)(=O)c1cccs1,cell number change,,-7.9%
O=C(CN1CCN(C(=O)c2ccco2)CC1)Nc1ccc(Cl)c(C(F)(F)F)c1,cell number change,,-7.73%
same,AC50,[1],"9.2 µM [rising, partial curve, poor fit]"
CCOC(=O)Cc1nnc(NC(=O)CCc2ccccc2)s1,cell number change,,-13.1%
same,AC50,[1],"0.0058 µM [falling, full curve, poor fit]"
CC1(C)CC(=O)C2=C(C1)NCN(CCCN1CCOCC1)C2,cell number change,,0.711%
same,AC50,[1],"0.517 µM [rising, full curve]"
COc1ccc(OC)c(S(=O)(=O)N2CCCC(C(=O)NCc3ccncc3)C2)c1 (stereo unspecified),cell number change,,2.99%
same,AC50,[1],"0.58 µM [rising, single point]"
O=C(NCCN1CCN(c2ccccc2F)CC1)c1ccc2nc3ccccc3c(=O)n2c1,cell number change,,-5.56%
same,AC50,[1],"6.51 µM [rising, partial curve, poor fit]"
O=C(NC1CCCC1)c1cccnc1N1CCCCCC1,cell number change,,-39.5%
same,AC50,[2],"0.164 µM [falling, full curve, poor fit]"
Cc1cccc(NC(=S)N2CCN(S(C)(=O)=O)CC2)c1,cell number change,,-3.47%
same,AC50,[2],"6.51 µM [rising, single point]"
same,AC50,[1],"11.6 µM [rising, single point]"
COc1ccc(CCN2C(=S)NC3CC2(C)Oc2ccc([N+](=O)[O-])cc23)cc1OC (stereo unspecified),cell number change,,127%
same,AC50,[2],"9.2 µM [rising, partial curve]"
same,AC50,[1],"1.64 µM [rising, partial curve]"
C/C(=N\NC(=O)Cc1cccn1C)c1ccco1,cell number change,,14.6%
same,AC50,[1],"0.651 µM [falling, full curve, poor fit]"
CCOC(=O)c1sc(NC(=O)CNCc2ccccn2)c(C(=O)OCC)c1C,cell number change,,4.62%
same,AC50,[2],"0.231 µM [rising, full curve]"
same,AC50,[1],"0.259 µM [rising, full curve]"
Cc1nc(SCC(=O)Nc2ccc3c(c2)OCO3)c(C#N)c2c1CCCC2,cell number change,,-16.2%
same,AC50,[1],"1.64 µM [rising, partial curve]"
O=C(Nc1nc(-c2cc(F)ccc2F)cs1)c1ccccn1,cell number change,,21.3%
same,AC50,[2],"0.082 µM [rising, full curve, poor fit]"
Cc1cc(C)c(S(=O)(=O)N2CCCCC2CCNC(=O)C(=O)NC2CC2)c(C)c1 (stereo unspecified),cell number change,,1.17%
same,AC50,[1],"29.1 µM [falling, single point]"
COc1ccc(O)c(-c2cc(-c3ccc(F)cc3)n[nH]2)c1,cell number change,,1.8%
same,AC50,[1],"3.66 µM [rising, full curve]"
CCOC(=O)NC(Nc1ccc(OC)cc1)(C(F)(F)F)C(F)(F)F,cell number change,,-61.1%
same,AC50,[2],"0.164 µM [falling, full curve]"
same,AC50,[1],"0.13 µM [falling, full curve, poor fit]"

# No new results follow: entries from further up.
smiles,measurement,setting,value
Cc1cc(C)c(S(=O)(=O)N2CCCCC2CCNC(=O)C(=O)NC2CC2)c(C)c1 (stereo unspecified),cell number change,,1.17%
same,AC50,[1],"29.1 µM [falling, single point]"
COc1ccc(O)c(-c2cc(-c3ccc(F)cc3)n[nH]2)c1,cell number change,,1.8%
same,AC50,[1],"3.66 µM [rising, full curve]"
CCOC(=O)NC(Nc1ccc(OC)cc1)(C(F)(F)F)C(F)(F)F,cell number change,,-61.1%
same,AC50,[2],"0.164 µM [falling, full curve]"
